# The other results are listed elsewhere or left out.
# B1: Actd5 (Actinidia), P84527 (protein)
# chain: ISSCNGPCRDLNDCDGQLICIKGKCNDDPQVGTHICRGTTHSHQPGGCKPSGTLTCRGKSYPTYDCSPPVTSSTPAKLTNNDFSEGGDDGGPSECDESYHNNNERIVALSTGWYNGGSRCGKMIRITASNGKSVSAKVVDECDSRHGCDKEHAGQPPCRNNIVDGSNAVWSALGLDKNVGVVDITWSMA
# Key:
# Assay in all cases: glycan array binding signal (z-score within array); higher = stronger binding
# Conditions in all cases: glycan notation: IUPAC condensed, linker removed
# [1] = target: Fuc(a1-2)[GalNAc(b1-3)]Gal
# Method in brief: (§1)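 The Consortium for Functional Glycomics database supplied 3228 glycan arrays, of which those lacking an available protein sequence were dropped. The binding signal, a within-array Z-score, was averaged across arrays of the same protein sequence and across linkers. Negative scores can be read as non-binding.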
# Fuc(a1-3)GlcNAc = target: Fuc(a1-3)GlcNAc
# Method in brief: as §1
# [2] = target: Fuc(a1-3)[Gal(b1-4)]Glc6S
# Method in brief: as §1
# [3] = target: Fuc(a1-3)[Gal(b1-4)]GlcNAc
# Method in brief: as §1
# [4] = target: Fuc(a1-3)[Gal(b1-4)]GlcNAc(b1-2)Man
# Method in brief: as §1
# [5] = target: Fuc(a1-3)[Gal(b1-4)]GlcNAc(b1-2)Man(a1-3)[Fuc(a1-3)[Gal(b1-4)]GlcNAc(b1-2)Man(a1-6)]Man(b1-4)GlcNAc(b1-4)GlcNAc
# Method in brief: as §1
# [6] = target: Fuc(a1-3)[Gal(b1-4)]GlcNAc(b1-2)Man(a1-3)[Fuc(a1-3)[Gal(b1-4)]GlcNAc(b1-2)Man(a1-6)]Man(b1-4)GlcNAc(b1-4)[Fuc(a1-6)]GlcNAc
# Method in brief: as §1
# [7] = target: Fuc(a1-3)[Gal(b1-4)]GlcNAc(b1-3)Gal(b1-3)[Fuc(a1-4)]GlcNAc
# Method in brief: as §1
# [8] = target: Fuc(a1-3)[Gal(b1-4)]GlcNAc(b1-3)Gal(b1-4)[Fuc(a1-3)]GlcNAc
# Method in brief: as §1
# [9] = target: Fuc(a1-3)[Gal(b1-4)]GlcNAc(b1-3)Gal(b1-4)[Fuc(a1-3)]GlcNAc(b1-3)Gal(b1-4)[Fuc(a1-3)]GlcNAc
# Method in brief: as §1
# [10] = target: Fuc(a1-3)[Gal(b1-4)]GlcNAc(b1-3)GalNAc
# Method in brief: as §1
# [11] = target: Fuc(a1-3)[Gal(b1-4)]GlcNAc(b1-6)GalNAc
# Method in brief: as §1
# [12] = target: Fuc(a1-3)[Gal(b1-4)]GlcNAc(b1-6)[Gal(b1-3)GlcNAc(b1-3)]Gal(b1-4)Glc
# Method in brief: as §1
# [13] = target: Fuc(a1-3)[Gal(b1-4)]GlcNAc6S
# Method in brief: as §1
# [14] = target: Fuc(a1-3)[Gal3S(b1-4)]Glc
# Method in brief: as §1
# [15] = target: Fuc(a1-3)[Gal3S(b1-4)]GlcNAc
# Method in brief: as §1
# [16] = target: Fuc(a1-3)[Gal3S(b1-4)]GlcNAc6S
# Method in brief: as §1
# [17] = target: Fuc(a1-3)[GalNAc(b1-4)]GlcNAc
# Method in brief: as §1
# [18] = target: Fuc(a1-3)[GalNAc(b1-4)]GlcNAc6S
# Method in brief: as §1
# Fuc(a1-4)GlcNAc = target: Fuc(a1-4)GlcNAc
# Method in brief: as §1
# Fuc(b1-3)GlcNAc = target: Fuc(b1-3)GlcNAc
# Method in brief: as §1
# Gal(a1-2)Gal = target: Gal(a1-2)Gal
# Method in brief: as §1
# Gal(a1-3)Gal = target: Gal(a1-3)Gal
# Method in brief: as §1
# Gal(a1-3)Gal(b1-3)GlcNAc = target: Gal(a1-3)Gal(b1-3)GlcNAc
# Method in brief: as §1
# [19] = target: Gal(a1-3)Gal(b1-3)GlcNAc(b1-2)Man
# Method in brief: as §1
# [20] = target: Gal(a1-3)Gal(b1-3)GlcNAc(b1-2)Man(a1-3)[Gal(a1-3)Gal(b1-3)GlcNAc(b1-2)Man(a1-6)]Man(b1-4)GlcNAc(b1-4)GlcNAc
# Method in brief: as §1
# [21] = target: Gal(a1-3)Gal(b1-3)GlcNAc(b1-3)GalNAc
# Method in brief: as §1
# [22] = target: Gal(a1-3)Gal(b1-3)GlcNAc(b1-6)GalNAc
# Method in brief: as §1
# [23] = target: Gal(a1-3)Gal(b1-3)[Fuc(a1-4)]GlcNAc(b1-2)Man(a1-3)[Gal(a1-3)Gal(b1-3)[Fuc(a1-4)]GlcNAc(b1-2)Man(a1-6)]Man(b1-4)GlcNAc(b1-4)GlcNAc
# Method in brief: as §1
# Gal(a1-3)Gal(b1-4)Glc = target: Gal(a1-3)Gal(b1-4)Glc
# Method in brief: as §1
# Gal(a1-3)Gal(b1-4)GlcNAc = target: Gal(a1-3)Gal(b1-4)GlcNAc
# Method in brief: as §1
# [24] = target: Gal(a1-3)Gal(b1-4)GlcNAc(b1-2)Man
# Method in brief: as §1
# [25] = target: Gal(a1-3)Gal(b1-4)GlcNAc(b1-2)Man(a1-3)[Gal(a1-3)Gal(b1-4)GlcNAc(b1-2)Man(a1-6)]Man(b1-4)GlcNAc(b1-4)GlcNAc
# Method in brief: as §1
# [26] = target: Gal(a1-3)Gal(b1-4)GlcNAc(b1-3)GalNAc
# Method in brief: as §1
# [27] = target: Gal(a1-3)Gal(b1-4)GlcNAc(b1-6)GalNAc
# Method in brief: as §1
# [28] = target: Gal(a1-3)Gal(b1-4)[Fuc(a1-3)]GlcNAc
# Method in brief: as §1
# [29] = target: Gal(a1-3)Gal(b1-4)[Fuc(a1-3)]GlcNAc(b1-2)Man(a1-3)[Gal(a1-3)Gal(b1-4)[Fuc(a1-3)]GlcNAc(b1-2)Man(a1-6)]Man(b1-4)GlcNAc(b1-4)GlcNAc
# Method in brief: as §1
# Gal(a1-3)GalNAc = target: Gal(a1-3)GalNAc
# Method in brief: as §1
# [30] = target: Gal(a1-3)[Gal(a1-4)]Gal(b1-4)GlcNAc
# Method in brief: as §1
# [31] = target: Gal(a1-4)Gal(b1-3)GlcNAc(b1-2)Man(a1-3)[Gal(a1-4)Gal(b1-3)GlcNAc(b1-2)Man(a1-6)]Man(b1-4)GlcNAc(b1-4)GlcNAc
# Method in brief: as §1
# Gal(a1-4)Gal(b1-4)Glc = target: Gal(a1-4)Gal(b1-4)Glc
# Method in brief: as §1
# Gal(a1-4)Gal(b1-4)GlcNAc = target: Gal(a1-4)Gal(b1-4)GlcNAc
# Method in brief: as §1
# [32] = target: Gal(a1-4)Gal(b1-4)GlcNAc(b1-2)Man(a1-3)[Gal(a1-4)Gal(b1-4)GlcNAc(b1-2)Man(a1-6)]Man(b1-4)GlcNAc(b1-4)GlcNAc
# Method in brief: as §1
# [33] = target: Gal(a1-4)Gal(b1-4)GlcNAc(b1-3)Gal(b1-4)Glc
# Method in brief: as §1
# Gal(a1-4)GlcNAc = target: Gal(a1-4)GlcNAc
# Method in brief: as §1
binder,measurement,setting,value
B1,glycan array binding signal (z-score),[1],-0.456
same,glycan array binding signal (z-score),Fuc(a1-3)GlcNAc,-0.676
same,glycan array binding signal (z-score),[2],-0.095
same,glycan array binding signal (z-score),[3],-0.654
same,glycan array binding signal (z-score),[4],-1.01
same,glycan array binding signal (z-score),[5],-0.8
same,glycan array binding signal (z-score),[6],0.636
same,glycan array binding signal (z-score),[7],-1.43
same,glycan array binding signal (z-score),[8],-0.729
same,glycan array binding signal (z-score),[9],-0.828
same,glycan array binding signal (z-score),[10],-0.199
same,glycan array binding signal (z-score),[11],-0.273
same,glycan array binding signal (z-score),[12],1.2
same,glycan array binding signal (z-score),[13],0.273
same,glycan array binding signal (z-score),[14],0.128
same,glycan array binding signal (z-score),[15],0.258
same,glycan array binding signal (z-score),[16],-0.46
same,glycan array binding signal (z-score),[17],-0.759
same,glycan array binding signal (z-score),[18],-1.21
same,glycan array binding signal (z-score),Fuc(a1-4)GlcNAc,0.142
same,glycan array binding signal (z-score),Fuc(b1-3)GlcNAc,0.153
same,glycan array binding signal (z-score),Gal(a1-2)Gal,-0.933
same,glycan array binding signal (z-score),Gal(a1-3)Gal,-0.145
same,glycan array binding signal (z-score),Gal(a1-3)Gal(b1-3)GlcNAc,-0.502
same,glycan array binding signal (z-score),[19],-0.14
same,glycan array binding signal (z-score),[20],1.3
same,glycan array binding signal (z-score),[21],-0.49
same,glycan array binding signal (z-score),[22],-0.822
same,glycan array binding signal (z-score),[23],1.58
same,glycan array binding signal (z-score),Gal(a1-3)Gal(b1-4)Glc,0.021
same,glycan array binding signal (z-score),Gal(a1-3)Gal(b1-4)GlcNAc,0.17
same,glycan array binding signal (z-score),[24],0.117
same,glycan array binding signal (z-score),[25],0.615
same,glycan array binding signal (z-score),[26],-0.529
same,glycan array binding signal (z-score),[27],-0.551
same,glycan array binding signal (z-score),[28],-1.11
same,glycan array binding signal (z-score),[29],2.94
same,glycan array binding signal (z-score),Gal(a1-3)GalNAc,-0.081
same,glycan array binding signal (z-score),[30],-0.412
same,glycan array binding signal (z-score),[31],0.431
same,glycan array binding signal (z-score),Gal(a1-4)Gal(b1-4)Glc,-0.25
same,glycan array binding signal (z-score),Gal(a1-4)Gal(b1-4)GlcNAc,0.019
same,glycan array binding signal (z-score),[32],2.59
same,glycan array binding signal (z-score),[33],-0.704
same,glycan array binding signal (z-score),Gal(a1-4)GlcNAc,-0.316

# Two records drawn at random from those above, as already listed:
binder,measurement,setting,value
B1,glycan array binding signal (z-score),[22],-0.822
same,glycan array binding signal (z-score),[10],-0.199

# Reference: the supplement of paper PMC8728848
